{
  "sequences": {"note": "Amino acid sequences for entries named in this document (tags omitted). Residues count along the entry.", "UniProt P0AGE9, residues 2-289": "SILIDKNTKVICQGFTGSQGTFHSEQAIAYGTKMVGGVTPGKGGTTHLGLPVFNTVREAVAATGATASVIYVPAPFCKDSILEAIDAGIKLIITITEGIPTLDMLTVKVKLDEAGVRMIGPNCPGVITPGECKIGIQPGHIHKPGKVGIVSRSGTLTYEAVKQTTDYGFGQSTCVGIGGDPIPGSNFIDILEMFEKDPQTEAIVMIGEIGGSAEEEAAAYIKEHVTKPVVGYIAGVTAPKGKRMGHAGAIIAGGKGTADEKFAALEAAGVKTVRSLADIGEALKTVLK"},
  "source": "patent US20170210824A1",
  "binders": {"B1": {"name": "3-pHis mAb SC44-8 (antibody, V domains shown)", "VH": "ESGRGLVQPGGSLTLTCTASGFSIDSYGFSWVRQAPGKGLEHIGYLTAGGRAFYASWAKSRSTITRNTNENTVTLKMTSLTAADTATYFCAKLGSGNPVAIWGPGTLVTVSS", "VL": "DPVMTPTPSFTSAAVGGTVTINCQSSQSVWRNKNLAWYQQKPGQPPKRLIYAIATLDSGVPSRFSGSGSGTQFTLTISDVQCDDAATYYCVGHYGSENDAYYAFGGGTEVVVKG"}},
  "key": {"[1]": {"molecular_target": "bacterial SCS (succinyl-CoA synthetase, E. coli), 3-pHis form (E. coli) (UniProt P0AGE9)", "test": "slot blot and immunoblot of E. coli lysate"}, "[2]": {"molecular_target": "bacterial SCS (succinyl-CoA synthetase, E. coli), 3-pHis form (E. coli) (UniProt P0AGE9)", "test": "immunoblot of E. coli lysate"}},
  "note": "These are yes or no findings as the source states them, for the method shown. Some binding calls cover weakened binding; strength is not graded here. Sequences can lack the tags named with a protein.",
  "data": [
    {"binder": "B1", "values": [
      {"measurement": "binding", "setting": "[1]", "result": "binds"},
      {"measurement": "binding", "setting": "[2]", "result": "binds"}
    ]}
  ]
}
